# The other results are listed elsewhere or left out.
# B1: HA-61200 (Pseudomonas aeruginosa), Q02SP8_PSEAB (protein)
# chain: MNKCYALVWNVSQGCWNVVSEGSRRRGKPAGAKAAIASVLALLGATALAPAYALPSGGTVVGGSANGEIHLSGGNSLSVNQKVDKLIANWDSFSVAAGERVIFNQPSSSSIALNRVIGTKASDIQGRIDANGQVFLVNPNGVLFGRGAQVNVGGLVASTLDITDAEFNGNSSRYRFTGPSTNGVLNHGGAITAAEGGSIALLGAQVDNRGTVLAQMGGVGLGAGSDLTLNFDGNKLLDIRVDAGVANALASNGGLLKADGGRVLMAARTANALLNTVVNSQGAIEARSLRGKNGRIVLDG
# Key:
# Assay in all cases: glycan array binding signal (z-score within array); higher = stronger binding
# Conditions in all cases: glycan notation: IUPAC condensed, linker removed
# GlcNAc(b1-3)GalNAc = molecular target: GlcNAc(b1-3)GalNAc
# Outline: (§1)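 Glycan array data were curated from 3228 arrays in the Consortium for Functional Glycomics database and kept only where the protein sequence was available. Glycan names were converted to IUPAC-condensed notation, and columns mapping to the same glycan were averaged. The binding signal is a within-array Z-score, averaged across arrays of the same protein sequence at different concentrations or buffers and across linkers. Negative Z-scores can be read as non-binding.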
# GlcNAc(b1-3)Man = molecular target: GlcNAc(b1-3)Man
# Outline: as §1
# [1] = molecular target: GlcNAc(b1-3)[GlcNAc(b1-4)][GlcNAc(b1-6)]GlcNAc
# Outline: as §1
# [2] = molecular target: GlcNAc(b1-3)[GlcNAc(b1-6)]Gal(b1-4)GlcNAc
# Outline: as §1
# [3] = molecular target: GlcNAc(b1-3)[GlcNAc(b1-6)]GalNAc
# Outline: as §1
# [4] = molecular target: GlcNAc(b1-4)Gal(b1-4)GlcNAc
# Outline: as §1
# GlcNAc(b1-4)GlcNAc = molecular target: GlcNAc(b1-4)GlcNAc
# Outline: as §1
# [5] = molecular target: GlcNAc(b1-4)GlcNAc(b1-4)GlcNAc
# Outline: as §1
# [6] = molecular target: GlcNAc(b1-4)GlcNAc(b1-4)GlcNAc(b1-4)GlcNAc(b1-4)GlcNAc
# Outline: as §1
# [7] = molecular target: GlcNAc(b1-4)GlcNAc(b1-4)GlcNAc(b1-4)GlcNAc(b1-4)GlcNAc(b1-4)GlcNAc
# Outline: as §1
# [8] = molecular target: GlcNAc(b1-4)[GlcNAc(b1-6)]GalNAc
# Outline: as §1
# [9] = molecular target: GlcNAc(b1-6)Gal(b1-4)GlcNAc
# Outline: as §1
# GlcNAc(b1-6)GalNAc = molecular target: GlcNAc(b1-6)GalNAc
# Outline: as §1
# [10] = molecular target: GlcNAc6S(b1-3)Gal(b1-4)GlcNAc
# Outline: as §1
# Kdn(a2-3)Gal(b1-3)GalNAc = molecular target: Kdn(a2-3)Gal(b1-3)GalNAc
# Outline: as §1
# Kdn(a2-3)Gal(b1-3)GlcNAc = molecular target: Kdn(a2-3)Gal(b1-3)GlcNAc
# Outline: as §1
# Kdn(a2-3)Gal(b1-4)Glc = molecular target: Kdn(a2-3)Gal(b1-4)Glc
# Outline: as §1
# Kdn(a2-3)Gal(b1-4)GlcNAc = molecular target: Kdn(a2-3)Gal(b1-4)GlcNAc
# Outline: as §1
# [11] = molecular target: Kdn(a2-3)Gal(b1-4)[Fuc(a1-3)]GlcNAc
# Outline: as §1
# Kdn(a2-6)Gal(b1-4)GlcNAc = molecular target: Kdn(a2-6)Gal(b1-4)GlcNAc
# Outline: as §1
# [12] = molecular target: Man(a1-2)Man(a1-2)Man(a1-3)Man
# Outline: as §1
# [13] = molecular target: Man(a1-2)Man(a1-2)Man(a1-6)[Man(a1-3)]Man
# Outline: as §1
# Man(a1-2)Man(a1-3)Man = molecular target: Man(a1-2)Man(a1-3)Man
# Outline: as §1
# [14] = molecular target: Man(a1-2)Man(a1-3)[Man(a1-2)Man(a1-6)]Man
# Outline: as §1
# [15] = molecular target: Man(a1-2)Man(a1-3)[Man(a1-2)Man(a1-6)]Man(a1-6)[Man(a1-2)Man(a1-2)Man(a1-3)]Man
# Outline: as §1
# [16] = molecular target: Man(a1-2)Man(a1-3)[Man(a1-2)Man(a1-6)]Man(a1-6)[Man(a1-2)Man(a1-2)Man(a1-3)]Man(b1-4)GlcNAc(b1-4)GlcNAc
# Outline: as §1
# [17] = molecular target: Man(a1-2)Man(a1-3)[Man(a1-6)]Man(a1-6)[Man(a1-2)Man(a1-3)]Man(b1-4)GlcNAc(b1-4)GlcNAc
# Outline: as §1
# [18] = molecular target: Man(a1-2)Man(a1-6)[Man(a1-3)]Man(a1-6)[Man(a1-2)Man(a1-2)Man(a1-3)]Man
# Outline: as §1
# [19] = molecular target: Man(a1-2)Man(a1-6)[Man(a1-3)]Man(a1-6)[Man(a1-2)Man(a1-2)Man(a1-3)]Man(b1-4)GlcNAc(b1-4)GlcNAc
# Outline: as §1
# Man(a1-3)[Man(a1-6)]Man = molecular target: Man(a1-3)[Man(a1-6)]Man
# Outline: as §1
# [20] = molecular target: Man(a1-3)[Man(a1-6)]Man(a1-6)[Man(a1-2)Man(a1-3)]Man(b1-4)GlcNAc(b1-4)GlcNAc
# Outline: as §1
# [21] = molecular target: Man(a1-3)[Man(a1-6)]Man(a1-6)[Man(a1-3)]Man
# Outline: as §1
# [22] = molecular target: Man(a1-3)[Man(a1-6)]Man(a1-6)[Man(a1-3)]Man(b1-4)GlcNAc(b1-4)GlcNAc
# Outline: as §1
# [23] = molecular target: Man(a1-3)[Man(a1-6)]Man(b1-4)GlcNAc(b1-4)GlcNAc
# Outline: as §1
# [24] = molecular target: Man(a1-3)[Man(a1-6)]Man(b1-4)GlcNAc(b1-4)[Fuc(a1-6)]GlcNAc
# Outline: as §1
# Man(a1-6)Man = molecular target: Man(a1-6)Man
# Outline: as §1
# Man(b1-4)GlcNAc = molecular target: Man(b1-4)GlcNAc
# Outline: as §1
# MurNAc(b1-4)GlcNAc = molecular target: MurNAc(b1-4)GlcNAc
# Outline: as §1
binder,measurement,setting,value
B1,glycan array binding signal (z-score),GlcNAc(b1-3)GalNAc,-0.301
same,glycan array binding signal (z-score),GlcNAc(b1-3)Man,-0.483
same,glycan array binding signal (z-score),[1],-0.922
same,glycan array binding signal (z-score),[2],-1.07
same,glycan array binding signal (z-score),[3],-0.141
same,glycan array binding signal (z-score),[4],0.684
same,glycan array binding signal (z-score),GlcNAc(b1-4)GlcNAc,0.176
same,glycan array binding signal (z-score),[5],-1.15
same,glycan array binding signal (z-score),[6],0.132
same,glycan array binding signal (z-score),[7],0.137
same,glycan array binding signal (z-score),[8],0.797
same,glycan array binding signal (z-score),[9],-0.529
same,glycan array binding signal (z-score),GlcNAc(b1-6)GalNAc,0.187
same,glycan array binding signal (z-score),[10],0.69
same,glycan array binding signal (z-score),Kdn(a2-3)Gal(b1-3)GalNAc,-0.393
same,glycan array binding signal (z-score),Kdn(a2-3)Gal(b1-3)GlcNAc,-0.687
same,glycan array binding signal (z-score),Kdn(a2-3)Gal(b1-4)Glc,-0.912
same,glycan array binding signal (z-score),Kdn(a2-3)Gal(b1-4)GlcNAc,0.32
same,glycan array binding signal (z-score),[11],1.87
same,glycan array binding signal (z-score),Kdn(a2-6)Gal(b1-4)GlcNAc,-0.106
same,glycan array binding signal (z-score),[12],-0.132
same,glycan array binding signal (z-score),[13],-0.079
same,glycan array binding signal (z-score),Man(a1-2)Man(a1-3)Man,-0.703
same,glycan array binding signal (z-score),[14],-0.334
same,glycan array binding signal (z-score),[15],0.009
same,glycan array binding signal (z-score),[16],-0.76
same,glycan array binding signal (z-score),[17],-0.706
same,glycan array binding signal (z-score),[18],-1.34
same,glycan array binding signal (z-score),[19],-0.59
same,glycan array binding signal (z-score),Man(a1-3)[Man(a1-6)]Man,-0.522
same,glycan array binding signal (z-score),[20],-0.418
same,glycan array binding signal (z-score),[21],-0.929
same,glycan array binding signal (z-score),[22],1.41
same,glycan array binding signal (z-score),[23],-0.272
same,glycan array binding signal (z-score),[24],-0.504
same,glycan array binding signal (z-score),Man(a1-6)Man,-0.102
same,glycan array binding signal (z-score),Man(b1-4)GlcNAc,0.051
same,glycan array binding signal (z-score),MurNAc(b1-4)GlcNAc,-0.605

# Taken from above for reference:
binder,measurement,setting,value
B1,glycan array binding signal (z-score),Kdn(a2-6)Gal(b1-4)GlcNAc,-0.106
same,glycan array binding signal (z-score),[12],-0.132

# From the supplement of paper PMC8728848
